The assay has as its target T1, Msp1 monomer with a C‐terminal twin strep tag (His6‐Msp1 WT‐2xStrep Monomer), soluble, P28737.
T1 chain: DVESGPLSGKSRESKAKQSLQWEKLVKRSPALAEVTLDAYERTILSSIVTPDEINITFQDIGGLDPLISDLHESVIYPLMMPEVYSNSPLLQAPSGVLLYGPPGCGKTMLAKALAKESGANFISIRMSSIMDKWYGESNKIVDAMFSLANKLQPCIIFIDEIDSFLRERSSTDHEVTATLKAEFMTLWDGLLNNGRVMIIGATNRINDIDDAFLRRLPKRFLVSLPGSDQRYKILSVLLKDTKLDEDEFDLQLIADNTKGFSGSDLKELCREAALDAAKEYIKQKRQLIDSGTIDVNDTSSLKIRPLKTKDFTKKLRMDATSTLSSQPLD
In words: condition: 1.2 mg·mL^−1 (5 μM hexamer/pseudohexamer); SEC; analytical SEC, S200 Increase 3.2/300 GL, 20 mM Tris pH 7.5, 100 mM NaCl, 0.5 mM TCEP; 0.1 mL of 1.2 mg/mL (5 uM hexamer/pseudohexamer) Msp1 with 2 mM ATP, 2 mM MgCl2; 0.1 mL/min; both purified. The following applies: remark: other sources report otherwise.

No constants are given. Whether binding was seen depends on the method and setting. Tags and fused reporters may be left off the sequences shown.

B1: Msp1 monomer with a C‐terminal twin strep tag (His6‐Msp1 WT‐2xStrep Monomer), soluble, P28737 33-362 (enzyme)
chain: DVESGPLSGKSRESKAKQSLQWEKLVKRSPALAEVTLDAYERTILSSIVTPDEINITFQDIGGLDPLISDLHESVIYPLMMPEVYSNSPLLQAPSGVLLYGPPGCGKTMLAKALAKESGANFISIRMSSIMDKWYGESNKIVDAMFSLANKLQPCIIFIDEIDSFLRERSSTDHEVTATLKAEFMTLWDGLLNNGRVMIIGATNRINDIDDAFLRRLPKRFLVSLPGSDQRYKILSVLLKDTKLDEDEFDLQLIADNTKGFSGSDLKELCREAALDAAKEYIKQKRQLIDSGTIDVNDTSSLKIRPLKTKDFTKKLRMDATSTLSSQPLD
Consider B1, for which the binding entry is recorded as “no binding”.

(Values after article PMC12793716, “Linked dimers of the AAA+ ATPase Msp1 reveal energetic demands and mechanistic plasticity for substrate extraction from lipid bilayers” (Febs Letters, 2025).)
